# Experimental data published in the supplement of paper PMC3334620.
# Over roughly 33,000 sequences, “E-score (-0.5 to 0.5)” has its median near -0.016; the highest 2% begin near 0.3. The list shows a part of the results.
# Target: T1, Yer184c (UniProt P39961)
# T1 sequence: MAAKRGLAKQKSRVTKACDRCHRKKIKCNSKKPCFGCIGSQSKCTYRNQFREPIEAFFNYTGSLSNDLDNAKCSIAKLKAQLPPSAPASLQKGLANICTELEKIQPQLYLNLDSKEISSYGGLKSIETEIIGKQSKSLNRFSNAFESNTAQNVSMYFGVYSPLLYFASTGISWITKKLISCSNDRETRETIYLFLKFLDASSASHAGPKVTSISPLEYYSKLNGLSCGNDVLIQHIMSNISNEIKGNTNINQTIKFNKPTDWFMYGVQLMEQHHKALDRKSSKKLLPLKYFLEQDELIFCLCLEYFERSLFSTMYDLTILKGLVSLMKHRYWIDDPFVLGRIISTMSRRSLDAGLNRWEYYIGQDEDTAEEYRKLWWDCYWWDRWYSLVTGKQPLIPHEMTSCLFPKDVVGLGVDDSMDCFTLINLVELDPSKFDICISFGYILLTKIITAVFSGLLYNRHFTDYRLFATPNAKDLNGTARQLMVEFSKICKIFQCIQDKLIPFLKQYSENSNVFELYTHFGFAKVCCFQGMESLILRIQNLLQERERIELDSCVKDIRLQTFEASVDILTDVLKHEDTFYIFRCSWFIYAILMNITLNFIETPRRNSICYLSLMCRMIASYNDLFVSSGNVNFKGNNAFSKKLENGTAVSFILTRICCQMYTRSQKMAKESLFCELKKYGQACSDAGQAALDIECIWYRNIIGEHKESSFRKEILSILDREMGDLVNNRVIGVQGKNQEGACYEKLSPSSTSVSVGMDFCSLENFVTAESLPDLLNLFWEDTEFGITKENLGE
# Experiment: PBM E-score (8-mer binding enrichment) (E-score (-0.5 to 0.5)); higher = stronger / more preferred TF binding
# Conditions: protein concentration: 100 nM; construct: GST-full length
# How it was run: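 PURExpress in vitro transcription/translation supplied GST-tagged yeast transcription factors, either full-length or DNA-binding domain. Applied at about 100-200 nM to universal all-10-mer Agilent arrays double-stranded by primer extension, the bound protein was detected with fluorescent anti-GST. E-scores, modified Wilcoxon-Mann-Whitney statistics, were given by the Universal PBM Analysis Suite to ungapped eight-base words pooled with their reverse complements after masliner normalisation.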
row,Sequence,PBM E-score
1,CAGTCCTC,-0.248
2,CACCATAA,-0.134
3,ATCATTCG,0.184
4,TACCAGCA,-0.181
5,GGGAGCAC,-0.0863
6,ACCTGTGA,0.0727
7,AGGTGTGG,-0.305
8,GTCTAGGA,-0.0819
9,GTATTTTA,0.236
10,AGATGGCG,0.0474
11,TCTGAGAA,0.0112
12,ACTTATAA,0.221
13,ATAAGTCA,-0.0747
14,CAAGCCCG,0.0934
15,AGTAGCAG,-0.0931
16,ATCGCGAG,0.118
17,GAAGTTAC,0.0984
18,CCAATACA,0.00312
19,GATTGTAC,-0.103
20,AAAGTTCG,0.229
21,CGAACCAA,0.104
22,GGACTTAA,-0.0986
23,AAAATCAC,0.0858
24,CCCGCGAG,0.103
25,AGTCAAGA,-0.0191

# Quoted at random: five entries already listed, in no set order.
row,Sequence,PBM E-score
23,AAAATCAC,0.0858
16,ATCGCGAG,0.118
5,GGGAGCAC,-0.0863
1,CAGTCCTC,-0.248
12,ACTTATAA,0.221

# Further results:

row,Sequence,PBM E-score
1,AAGGTGAA,-0.0939
2,AAAATTTT,0.293
3,ATTTGCTA,0.0871
4,AACCGTAG,0.00354
5,GTAGAAAC,0.0701
6,CCTCAACA,0.126
7,CGCTCAAG,-0.0178
8,TCCCAACA,-0.109
9,CGAAGCAA,0.0302
10,ACCCAGTC,-0.229
11,CACACTGC,-0.155
12,CAGTTCCA,-0.103
13,AGTCCTAT,-0.174
14,CGTCCCTC,-0.0803
15,CCGTTTCC,-0.00402
16,AAGTGGCT,-0.101
17,GCAGACTA,-0.0298
18,CATGTTCG,0.0957
19,GGGATGGA,-0.0899
20,CCGAAAGC,0.145
21,TAACGTGA,-0.0842
22,CGAAAAAA,0.233
23,ATCCCAGC,-0.059
24,ACGCTGCG,-0.0865
25,CTTACCTC,-0.191

row,Sequence,PBM E-score
1,AAGTAGTC,0.0817
2,CAAGGCCG,0.187
3,TCAGAGGA,-0.145
4,CGCTGCAG,-0.152
5,GGCATAGA,0.0796
6,AGCCACTC,-0.212
7,GATGTTAC,0.133
8,CTTCACGC,0.075
9,CACAGTGC,-0.0361
10,ATCCACTA,0.105
11,CTCCCGAA,-0.0112
12,AACTCAGA,0.109
13,AAAATGCA,-0.0621
14,CCTTTCCG,0.215
15,GCCTTTCC,0.0586
16,GCATATCA,0.0856
17,GCGTTAAA,-0.0955
18,AAACCAAT,0.152
19,GGAAACCC,0.0877
20,AGCAGTAT,0.0365
21,AACGTATT,0.084
22,GGGGAGAC,-0.179
23,CAGCTAAA,-0.0367
24,CAACATGA,0.0223
25,ATGTGCCA,-0.0641

row,Sequence,PBM E-score
1,CCTATCCC,-0.00501
2,AATTACAG,0.212
3,CTTAAAGC,0.152
4,CCACTGGA,-0.138
5,ATCCTGAG,-0.0693
6,AACGTGAT,-0.0005
7,CCGATTGA,0.175
8,CCATGGCG,0.101
9,GCGCCACA,-0.162
10,AAATTTTA,0.0948
11,AGACGCCC,-0.0845
12,CCAAAATC,0.0552
13,CCTCCAAG,-0.12
14,ACCGTTAT,0.0567
15,ACTCATCA,0.00089
16,AATCGATA,0.142
17,AGGCACCA,-0.0795
18,AGAGCCCG,-0.0183
19,ATTAACAA,0.247
20,GAACACCA,-0.0328
21,GAATGACC,0.0373
22,AATAGTTA,-0.00148
23,ACGCCTAC,-0.266
24,CCTTCCGC,0.0188
25,ACCCATCC,-0.179

row,Sequence,PBM E-score
1,AAGTGGGG,-0.246
2,GAGCAATA,0.0587
3,AGCACTTC,-0.043
4,CATTAGTA,-0.0008
5,TCGATAGA,0.0326
6,TCGTTAAA,0.166
7,CACATCTC,-0.193
8,TCATCAAA,-0.0378
9,AAGTGGAG,-0.0286
10,CACGACGA,-0.0485
11,AACGGTGA,-0.0245
12,AATACAAT,0.152
13,ATCCGTTC,0.29
14,CAAAACGA,0.13
15,ATGAGATC,0.011
16,CAAATTAA,0.0386
17,GAGGATCC,0.116
18,GTCTCGTA,-0.142
19,ACACATGC,-0.0896
20,TAAACAGA,0.122
21,ATCACCTA,-0.207
22,AATCATGC,0.0333
23,CTCAAGCA,-0.183
24,CATTCTGC,0.0316
25,TTCGTCAA,0.0319

# 4 entries from above, with tabs.
row	Sequence	PBM E-score
1	AAGTGGGG	-0.246
8	TCATCAAA	-0.0378
13	ATCCGTTC	0.29
15	ATGAGATC	0.011

# Further entries

row,Sequence,PBM E-score
1,AAGAACGT,0.0621
2,CCCCATGC,-0.191
3,ATCAGTAC,0.0801
4,CAGACCCG,0.179
5,ACGGGCAA,-0.0249
6,CTACTATC,0.196
7,GTCTAAAC,0.117
8,CAATTCAG,-0.0853
9,GCGTATGA,-0.0801
10,AATTATAG,0.0808
11,AACCAATG,-0.0313
12,AAGCCAAC,-0.041
13,AGGTAAGA,0.0318
14,CTAGCGAG,-0.128
15,ATCAACAT,0.13
16,CCAGTCCC,-0.247
17,TGCCTCCA,-0.411
18,CAGCGTGC,-0.0824
19,ATTTTCAC,0.19
20,CGAATATC,0.0862
21,CACCTGAG,-0.255
22,AGGATAAG,-0.0488
23,ACAGGAAT,0.0563
24,GACCAGGA,-0.223
25,TGGGTGAA,0.182

row,Sequence,PBM E-score
1,GCGGCTAA,0.186
2,CGATCGAC,0.0882
3,ATTCAATA,0.143
4,TATTCTAA,0.181
5,TTCATCAA,0.0967
6,TAGCATGA,-0.107
7,ACCGTGTG,0.0157
8,GAGGTCTA,-0.226
9,GTTAGGCA,-0.133
10,CGCAATCC,0.17
11,AATTACTC,0.242
12,ACTGTCAG,-0.044
13,CGGCTTTC,0.264
14,AGCTAGAG,-0.115
15,ACCCCTCT,-0.271
16,ACTCCTTC,-0.167
17,CTCGGAAG,0.245
18,GACCTCTC,0.0267
19,AACTACCG,0.0299
20,CTAGAGAC,-0.174
21,GGGGTTGA,-0.254
22,GATAAACC,0.208
